Source: article PMC7317449
Results are given in words; binding and its absence hold for the method and conditions named. For some of these results: A result given as binding can be weak or reduced; the word gives no strength.

How the values were obtained:
[1] = target: T1, N-lobe of the EF-domain of hNOX5 (residues 1–77) (human) (UniProt Q96PH1); test: NMR titration; 1H-15N HSQC, labeled N- or C-lobe (40 µM) mixed with unlabeled DH-domain (80 µM), 20 °C, in the absence of calcium; both purified
T1 sequence: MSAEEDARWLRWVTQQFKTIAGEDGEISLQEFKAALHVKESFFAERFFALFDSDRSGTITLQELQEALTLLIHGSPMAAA

[2] = target: T1, N-lobe of the EF-domain of hNOX5 (residues 1–77) (human); test: NMR titration; 1H-15N HSQC, labeled N- or C-lobe (40 µM) mixed with unlabeled DH-domain (80 µM), 20 °C, in the presence of calcium; both purified
[3] = target: T2, C-lobe of the EF-domain of hNOX5 (residues 78–161) (human) (UniProt Q96PH1); test: as above
T2 sequence: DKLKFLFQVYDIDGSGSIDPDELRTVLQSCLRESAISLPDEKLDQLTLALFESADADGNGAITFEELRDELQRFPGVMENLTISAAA

[4] = target: T2, C-lobe of the EF-domain of hNOX5 (residues 78–161) (human); test: condition: only in the absence of calcium (80 µM DH-domain with 40 µM lobe); NMR titration; 1H-15N HSQC, labeled N- or C-lobe (40 µM) mixed with unlabeled DH-domain (80 µM), 20 °C, in the absence of calcium; both purified

## C. stagnale DH-domain, thermostable mutant (csDH^PWLELAAA) (Cylindrospermum stagnale) (domain or fragment)
[1]
  binding: no binding (tested: 80 µM DH-domain with 40 µM lobe)
[2]
  binding: no binding (tested: 80 µM DH-domain with 40 µM lobe)
[3]
  binding: binds weakly
[4]
  binding: no binding
